Measurements reported in PMC8129077.
Results are given in words; binding and its absence hold for the method and conditions named. Binding seen in cells or lysates may run through a third protein. Some results given as binding are weak or reduced against the parent protein; the word gives no strength.

Sequences of proteins named here, by UniProt entry; tags and fusion partners are left off.
UniProt P37238: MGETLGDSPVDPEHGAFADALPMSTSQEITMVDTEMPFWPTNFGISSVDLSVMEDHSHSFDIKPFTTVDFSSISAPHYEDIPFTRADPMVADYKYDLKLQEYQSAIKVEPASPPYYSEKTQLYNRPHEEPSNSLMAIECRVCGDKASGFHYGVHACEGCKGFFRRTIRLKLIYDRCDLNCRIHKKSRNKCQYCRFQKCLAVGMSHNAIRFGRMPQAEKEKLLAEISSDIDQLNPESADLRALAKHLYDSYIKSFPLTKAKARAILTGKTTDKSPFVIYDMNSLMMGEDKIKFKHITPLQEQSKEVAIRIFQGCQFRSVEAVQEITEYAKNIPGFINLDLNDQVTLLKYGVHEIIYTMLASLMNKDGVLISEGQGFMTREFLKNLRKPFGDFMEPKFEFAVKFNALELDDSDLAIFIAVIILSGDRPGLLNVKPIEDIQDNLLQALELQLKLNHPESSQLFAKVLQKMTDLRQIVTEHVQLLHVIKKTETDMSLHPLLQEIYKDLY

Target: p62 (encoded by Sqstm1), endogenous (mouse (endogenous in brown adipocytes)) (UniProt Q64337)
Experiment: co-IP; endogenous proteins; nuclear lysates (3–4 mg) of brown adipocytes treated with ISO and rosiglitazone; IP with anti-p62 or anti-PPARγ and protein G agarose, overnight at 4 °C; washed with BC300 buffer (50 mM Tris-HCl pH 7.9, 300 mM KCl, 2 mM EDTA, 10% glycerol, 0.1% NP-40)

- binding: binds
Substance: peroxisome proliferator-activated receptor γ (PPARγ), endogenous (from UniProt P37238 1-505)
